This note sets out measurements from PubChem BioAssay AID662 (National Center for Advancing Translational Sciences (NCATS), 2007).

Each structure is given as a SMILES string. This is one part of the list. These are further read-outs of the screen, such as a control signal, another cell line or another target. No call is given for them. The list favours compounds with an active or inconclusive main result. The note in brackets gives the kind of curve behind each potency; many fits are weak.

The assay in a line: Cell signaling CRE-BLA (Fsk stim). To be noted: CHO CRE-bla reporter (cAMP response element driving beta-lactamase), forskolin EC10, beta-lactamase ratio; measured here: 460 nm blue channel. The method, boiled down: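 Cells were plated overnight at 37 °C, exposed to compound titrations plus EC10 NKH 477 for 3 h, then given CCF4 dye for 2 h at room temperature. Blue/green (460/530 nm) ratio was converted to %Activity and AC50 values calculated.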
Broadly, the AC50 is the concentration giving half of the maximal activity seen. For `CN(C)S(=O)(=O)c1ccc(S(=O)(=O)N(CC(=O)Nc2ccccc2)Cc2ccco2)cc1`, the AC50 is 0.1 µM [falling, single point].

For the molecule `CCN1CCN(/C=N/c2nc3c(s2)CCCC3)CC1`, the AC50 was 3.16 µM [falling, full curve, poor fit]. Consider `Nc1nc(CN2CCN(c3ccc(F)cc3)CC2)nc(N2CCCc3ccccc32)n1`, for which the AC50 was 0.126 µM [falling, full curve, poor fit]. With `COc1ccc(-n2cnnc2SCc2cnc(-c3ccccc3)s2)cc1`, the AC50 is 15.8 µM [rising, single point].

As to `O=C(OCc1cc2ccccc2[nH]c1=O)c1cccnc1`, the half-maximal activity concentration (AC50) was 6.31 µM [rising, partial curve]. Take `CCCCn1c(CN2CCN(c3cccc(Cl)c3)CC2)nc2c1c(=O)[nH]c(=O)n2C`: the AC50 is 10 µM [rising, partial curve].

Consider `C=CCNc1sc(C(=O)c2cccs2)c(N)c1C#N`, for which the AC50 is 10 µM [rising, partial curve]. Then `CCOc1ccc(-n2c(SCc3nc(-c4cccs4)no3)nnc2-c2ccncc2)cc1`, with 10 µM [rising, partial curve]; and `O=C(c1ccc(COc2ccc(F)cc2)o1)n1cccn1`, with 25.1 µM [rising, single point]; and `Cc1nn(Cc2ccccc2)c(C)c1NC(=O)c1cc2nc(-c3ccco3)cc(C(F)(F)F)n2n1`, with 7.94 µM [rising, partial curve]. Then `COc1cccc(OC)c1C(=O)N1CCN(c2ccccn2)CC1`, with 0.0398 µM [falling, full curve, poor fit]; and `CN(C)/C=N/c1c(C(=O)NCc2ccccc2)nnn1Cc1ccccc1`, with 0.1 µM [falling, full curve]. Take `COc1ccc(S(=O)(=O)N2CCN(C(=O)CCC3CCCC3)CC2)cc1`: the concentration at half-maximal activity (AC50) is 1.26 µM [rising, partial curve, poor fit]. As to `COCCn1c(=O)c(-c2ccc(Cl)cc2)nc2cnc(Oc3cccc(Cl)c3)nc21`, the AC50 was 3.16 µM [rising, full curve]. `c1ccc(-c2cc(-c3nc(-c4ccccn4)no3)c3ccccc3n2)cc1`: the half-maximal activity concentration (AC50) is 3.16 µM [rising, full curve]. Regarding `CCNc1ncc2nc(-c3ccc(OC)cc3)c(=O)n(CCOC)c2n1`, the AC50 was 0.501 µM [rising, single point]. The same measure for `CCOc1cc(-c2noc(N)c2C(=O)OC)cc(OCC)c1OCC`: 15.8 µM [rising, partial curve]; for `CCOC(=O)C1CCCN(C(=O)c2cc(-c3ccc(C)cc3)on2)C1` (stereo not drawn): 10 µM [rising, partial curve]. The same measure for `CC(C)C(c1nnnn1Cc1ccco1)N1CCN(c2cccc(Cl)c2)CC1` (stereo not drawn): 0.126 µM [falling, partial curve, poor fit]; for `CCOc1ccccc1NC(=O)N1C2CCCC1CC(NC(=O)C1CC1)C2` (stereo not drawn): 12.6 µM [rising, partial curve]. The same measure for `COc1ccc2nc3oc(C(=O)NCc4cccs4)cc3cc2c1`: 7.94 µM [rising, partial curve, poor fit]. On to `CCOc1ccc(NC(=O)CSc2nc3cccnc3n2CC)cc1`, for which the AC50 is 15.8 µM [rising, single point]. For the molecule `Cc1sc(NC(=O)CSc2nc(N)n(CC(=O)c3ccccc3)n2)c(C#N)c1C`, the AC50 was 5.01 µM [rising, partial curve]. With `CCn1c(N2CCC(Cc3ccccc3)CC2)nc2c1c(=O)[nH]c(=O)n2C`, the AC50 was 1 µM [rising, full curve]. The same measure for `COc1ncc2nc(-c3cn(C)c4ccccc34)c(=O)n(C[C@H]3CCCO3)c2n1`: 12.6 µM [rising, partial curve, poor fit]; for `CCn1c(SCC(=O)c2ccc(CNC(C)=O)o2)nnc1-c1cccs1`: 5.01 µM [falling, partial curve]. With `Cc1cc(C(=O)OCC(=O)c2ccc(Br)s2)no1`, the AC50 was 5.01 µM [falling, single point]. As to `CCCn1c(SCC(=O)N2CCc3ccccc3C2)nc2c1c(=O)n(C)c(=O)n2C`, the AC50 was 10 µM [rising, single point]. For `COC(=O)C(CC(C)C)NC(=O)c1cc(OC)c(OC)c(OC)c1` (stereo not drawn), the half-maximal activity concentration (AC50) was 12.6 µM [rising, partial curve]. As to `Cc1nc2nc(C)c(CCC(=O)N3CCN(c4ccccn4)CC3)c(C)n2n1`, the concentration at half-maximal activity (AC50) is 0.01 µM [falling, full curve, poor fit]. In the case of `Cc1ccc(S(=O)(=O)C(C#N)c2nc3ccccc3nc2N2CC(C)OC(C)C2)cc1C` (stereo not drawn), the AC50 is 10 µM [rising, partial curve]. The same measure for `Cc1cc(NC(=O)c2cccc(S(=O)(=O)N3CCCC3)c2)no1`: 3.98 µM [falling, partial curve]; for `O=C1CC(O)(C(F)F)Oc2ccc3ccccc3c21` (stereo not drawn): 3.98 µM [falling, partial curve]. For the molecule `CN1CCc2cc(NC(=O)Nc3cccnc3)ccc21`, the AC50 is 15.8 µM [falling, partial curve].

Consider `CCOc1ccc(OCC)c(NC(=O)CSc2nc3c(c(=O)n(C)c(=O)n3C)n2C(C)C)c1`, for which the AC50 was 3.98 µM [rising, partial curve]. Regarding `Cc1cccc(Cn2c(N(C)CCO)nc3c2c(=O)[nH]c(=O)n3C)c1`, the concentration at half-maximal activity (AC50) is 12.6 µM [rising, partial curve]. On to `CNC(=O)N(C1=NCC(C)S1)c1ccc(F)cc1F` (stereo not drawn), for which the AC50 is 2.51 µM [rising, single point].

Consider `COc1ccc(OCc2nnc3n2N=C(c2ccc(OC)cc2)CS3)cc1`, for which the half-maximal activity concentration (AC50) was 2.51 µM [rising, full curve]. With `Cn1cccc1C(=O)N1CCN(c2cccc(C(F)(F)F)c2)CC1`, the AC50 is 0.158 µM [falling, full curve, poor fit]. Then `COc1ccc(-c2csc3c2[N+]2=CCC=C2C3=O)cc1`, with 3.16 µM [rising, partial curve]; and `COc1cc(NC(=O)c2ccccc2)c(OC)cc1NC(=O)CN1CCOCC1`, with 10 µM [rising, partial curve]; and `COc1ccc(C2=NOC(C(=O)NC(C)(C)C)C2)cc1` (stereo not drawn), with 12.6 µM [rising, single point].

On to `Cc1cccc2c(=O)cc(C)n(CC(=O)N3CCCCC3)c12`, for which the AC50 was 3.16 µM [rising, partial curve].
